Measurements from patent US20110200622A1 (SAMSUNG ELECTRONICS, published 2011).
These are yes or no findings as the source states them, for the method shown. Some binding calls cover weakened binding; strength is not graded here.

Chains of the proteins cited; added tags and fusions are not shown. Lines headed by an entry give the natural chain unless they say otherwise; changes in a name come on top. A line that says so, or that is headed by a name, gives the form on record, which may keep a tag or linker.
human VEGF (R&D systems, Inc.; catalog #293-VE) (P15692, form named): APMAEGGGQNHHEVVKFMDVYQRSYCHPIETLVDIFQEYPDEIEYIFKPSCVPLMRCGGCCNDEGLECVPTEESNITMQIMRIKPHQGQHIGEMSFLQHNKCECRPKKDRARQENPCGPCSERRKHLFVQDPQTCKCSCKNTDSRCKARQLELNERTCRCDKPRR

Target: human VEGF (R&D systems, Inc.; catalog #293-VE) (human) (UniProt P15692)
Experiment: phage ELISA on plate-immobilised human VEGF, anti-M13-HRP, OD450

Binder: DRFTMWDSQS (peptide, not shown: large carriers) [polypeptide clone number 80, displayed on phage]
- binding: binds
